Test results taken from PubChem BioAssay AID504834 (National Center for Advancing Translational Sciences (NCATS), 2011).
Hit rate of the full screen: of about 320,000 compounds, about 22,000 (6.9%) were called active. Inconclusive results, whose numbers are uncertain, are shown with a selection of clear calls. The call rests on the fitted dose curve; in most records, active means well fitted inhibition curve with a large enough effect; inconclusive means small, poorly fitted or top-dose-only effect, or another doubt; inactive means no such curve, though single readings can be large or run the other way. A potency beside an inconclusive call is a rough fit, not a confirmed value.

experiment: Primary qHTS for delayed death inhibitors of the malarial parasite plastid, 96 hour incubation; conditions: P. falciparum luciferase reporter growth; series mostly up to 28.7 µM
How it was run: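 Readout is luminescence from an integrated firefly luciferase in P. falciparum. Red cells, 2% hematocrit and 0.05% parasitemia final, were cultured with compound through two parasite generations (96 hours) at 37 C, 5% CO2.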
Potency means the concentration at half of the fitted maximal effect.

| SMILES | Potency |
| --- | --- |
| O=C(N/N=C/c1cccc([N+](=O)[O-])c1)c1cccc(Br)c1 | inactive |
| CCCCNc1ccc(C(=O)OCCOCCOCCOCCOCCOCCOCCOCCOCCOC)cc1 | inactive |
| Cc1cc(C)c(C)c(S(=O)(=O)NCc2ccc(C(=O)N3CCCC3)cc2)c1C | inconclusive: 18.5 µM [inhibitor, single point] |
| Cc1ccc(CSc2nnc3ccc(-c4ccncc4)nn23)cc1 | inconclusive: 6.57 µM [inhibitor, partial curve, poor fit] |
| COc1ccc(OC)c2sc(Cl)nc12 | inconclusive: 0.0033 µM [inhibitor, full curve, poor fit] |
| O=C(O)c1ccc(S(=O)(=O)c2ccc3c(c2)C(=O)N(c2ccccc2[N+](=O)[O-])C3=O)cc1 | active: 13.1 µM |
| CNc1cc(C)c(C#N)c2nc3ccccc3n12 | inconclusive: 8.28 µM [inhibitor, partial curve] |
| CCN(CC(=O)Nc1ccc(OC)cc1)C(=O)C1CCN(C(=O)c2ccc(Cl)cc2)CC1 | inconclusive: 9.28 µM [inhibitor, single point] |
| COc1ccc(C(CCNCc2ccc(N(C)C)cc2)c2ccccc2OC)cc1 (stereo not drawn) | inconclusive: 18.5 µM [inhibitor, single point] |
| COC(=O)c1sccc1NC(=S)N1CCN(C)CC1 | inconclusive: 0.147 µM [inhibitor, full curve, poor fit] |
| COc1ccc(CNC(=O)CCS(=O)(=O)c2ccc3c(c2)NC(=O)C(C)S3)cc1 (stereo not drawn) | inconclusive: 0.0033 µM [inhibitor, full curve, poor fit] |
| CC1CC(C)CN(c2cc3c(cc2[N+](=O)[O-])C(=O)N(c2ccccc2)C3=O)C1 (stereo not drawn) | inconclusive: 10.4 µM [inhibitor, single point] |
| COc1ccc(C(=O)Nn2c(CC(C)C)nc3cc(Cl)ccc3c2=O)c(OC)c1 | inconclusive: 7.38 µM [inhibitor, partial curve, poor fit] |
| CCNC(=O)Cc1ccc(NS(=O)(=O)c2ccc(F)cc2)cc1 | inactive |
| O=C1CCC(C(=O)Nc2ccc([N+](=O)[O-])cc2)N1 (stereo not drawn) | inactive |
| COc1ccc(CC2(C)OC(c3ccc(C)c([N+](=O)[O-])c3)=NN2C(C)=O)cc1 (stereo not drawn) | inconclusive: 18.5 µM [inhibitor, single point] |
| COc1ccc(NC(=O)c2nn(C)c3c2CS(=O)(=O)c2ccccc2-3)cc1 | inconclusive: 20.8 µM [inhibitor, single point] |
| Cc1cc(C(=O)OCC(=O)NCCc2ccc(S(N)(=O)=O)cc2)c2ccccc2n1 | inconclusive: 0.165 µM [inhibitor, full curve, poor fit] |
| COCc1c(C(=O)N2CCN(Cc3c(F)cccc3Cl)CC2)oc2ccccc12 | inconclusive: 10.4 µM [inhibitor, partial curve, poor fit] |
| CCOC(=O)c1c(CN(C)C)n(-c2ccc(C)cc2)c2cc(Br)c(O)cc12 | active: 0.329 µM |
| COc1ccccc1-c1cc(C(=O)Nc2cccnc2)no1 | inconclusive: 20.8 µM [inhibitor, partial curve, poor fit] |
| O=C(NC1CCS(=O)(=O)C1)c1cc(-c2ccccc2)nc2ccccc12 (stereo not drawn) | inactive |

Some of these compounds in order of length of the SMILES, ascending.

| SMILES | Potency |
| --- | --- |
| CCNC(=O)Cc1ccc(NS(=O)(=O)c2ccc(F)cc2)cc1 | inactive |
| COc1ccc(C(CCNCc2ccc(N(C)C)cc2)c2ccccc2OC)cc1 (stereo not drawn) | inconclusive: 18.5 µM [inhibitor, single point] |
| O=C(NC1CCS(=O)(=O)C1)c1cc(-c2ccccc2)nc2ccccc12 (stereo not drawn) | inactive |
| COc1ccc(NC(=O)c2nn(C)c3c2CS(=O)(=O)c2ccccc2-3)cc1 | inconclusive: 20.8 µM [inhibitor, single point] |
| Cc1cc(C)c(C)c(S(=O)(=O)NCc2ccc(C(=O)N3CCCC3)cc2)c1C | inconclusive: 18.5 µM [inhibitor, single point] |
| CCN(CC(=O)Nc1ccc(OC)cc1)C(=O)C1CCN(C(=O)c2ccc(Cl)cc2)CC1 | inconclusive: 9.28 µM [inhibitor, single point] |
| COc1ccc(CC2(C)OC(c3ccc(C)c([N+](=O)[O-])c3)=NN2C(C)=O)cc1 (stereo not drawn) | inconclusive: 18.5 µM [inhibitor, single point] |
| O=C(O)c1ccc(S(=O)(=O)c2ccc3c(c2)C(=O)N(c2ccccc2[N+](=O)[O-])C3=O)cc1 | active: 13.1 µM |

Going on with the list:

| SMILES | Potency |
| --- | --- |
| CC(=O)Nc1ccc(NC(=O)Cc2sc(C)nc2-c2ccc(C)cc2)cc1 | inconclusive: 1.65 µM [inhibitor, partial curve, poor fit] |
| CC(=O)NCCc1ccc(C(=O)Cn2cnc3ccccc3c2=O)cc1 | inactive |
| COc1ccc2c(C)c(Cc3ccccc3)c(=O)oc2c1OC | inactive |
| O=C(/C=C/c1cccc2ccccc12)c1ccncc1 | inconclusive: 18.5 µM [inhibitor, single point] |
| CCCNC(=O)CCc1c(C)nc2nc(C)nn2c1C | inconclusive: 10.4 µM [inhibitor, single point] |
| O=C1C=C(c2cccc(O)c2)C[C@@H](c2ccc(F)cc2)C1 | inconclusive: 18.5 µM [inhibitor, single point] |
| Cc1ccccc1OCC(=O)NNC(=O)Nc1ccc(Cl)cc1 | inactive |
| O=C(CCN1C(=O)c2ccc(Br)cc2C1=O)NC1CCCCC1 | inconclusive: 18.5 µM [inhibitor, single point] |
| CC1CN(CCOc2ccc(Cl)cc2Cl)CC(C)O1 (stereo not drawn) | inconclusive: 7.38 µM [inhibitor, partial curve, poor fit] |
| Cc1cc(C)cc(C(=O)NN2CCN(C)CC2)c1 | inconclusive: 3.7 µM [inhibitor, partial curve, poor fit] |
| COc1ccccc1NC(=O)CSc1nnc(-c2ccoc2C)n1CCc1ccccc1 | inconclusive: 18.5 µM [inhibitor, single point] |
| COCCNc1nc(N)c([N+](=O)[O-])c(N2CCCCCC2)n1 | inconclusive: 18.5 µM [inhibitor, single point] |
| COC(=O)Cc1c(CSc2ccccc2)oc2ccc(O)c(CN(C)C)c12 | inconclusive: 18.5 µM [inhibitor, single point] |
| CC1Cc2ccccc2N1C(=O)COC(=O)c1ccc(N(C)C)cc1 (stereo not drawn) | inconclusive: 3.29 µM [inhibitor, full curve] |
| Cc1nnc(SCC(=O)Nc2nnc(-c3ccccc3)o2)s1 | inconclusive: 9.28 µM [inhibitor, single point] |
| COc1ccccc1C1=CC(=O)C[C@H](c2ccc(F)cc2)C1 | inconclusive: 16.5 µM [inhibitor, single point] |
| O=C(NCc1ccc2c(c1)OCO2)c1ccc(S(=O)(=O)NCC2CCCO2)cc1 (stereo not drawn) | inconclusive: 18.5 µM [inhibitor, single point] |
| CC(=O)Nc1ccc(S(=O)(=O)c2ccc(N)cc2)cc1 | inactive |
| Cc1ccc(C(=O)N(CN2CCCC2=O)c2ccccc2)cc1C | inconclusive: 9.28 µM [inhibitor, partial curve, poor fit] |
| Cn1c(SCCCC(=O)c2ccc(F)cc2)nnc1-c1ccncc1 | active: 10.4 µM |
| Cn1c(=O)c2c(SCc3cccnc3)nc(CC(C)(C)C)nc2n(C)c1=O | inconclusive: 11.7 µM [inhibitor, partial curve, poor fit] |
